Here are results for one substance from paper PMC7387469.

Sequences of proteins named here, by UniProt entry; tags and fusion partners are left off.
UniProt O43524: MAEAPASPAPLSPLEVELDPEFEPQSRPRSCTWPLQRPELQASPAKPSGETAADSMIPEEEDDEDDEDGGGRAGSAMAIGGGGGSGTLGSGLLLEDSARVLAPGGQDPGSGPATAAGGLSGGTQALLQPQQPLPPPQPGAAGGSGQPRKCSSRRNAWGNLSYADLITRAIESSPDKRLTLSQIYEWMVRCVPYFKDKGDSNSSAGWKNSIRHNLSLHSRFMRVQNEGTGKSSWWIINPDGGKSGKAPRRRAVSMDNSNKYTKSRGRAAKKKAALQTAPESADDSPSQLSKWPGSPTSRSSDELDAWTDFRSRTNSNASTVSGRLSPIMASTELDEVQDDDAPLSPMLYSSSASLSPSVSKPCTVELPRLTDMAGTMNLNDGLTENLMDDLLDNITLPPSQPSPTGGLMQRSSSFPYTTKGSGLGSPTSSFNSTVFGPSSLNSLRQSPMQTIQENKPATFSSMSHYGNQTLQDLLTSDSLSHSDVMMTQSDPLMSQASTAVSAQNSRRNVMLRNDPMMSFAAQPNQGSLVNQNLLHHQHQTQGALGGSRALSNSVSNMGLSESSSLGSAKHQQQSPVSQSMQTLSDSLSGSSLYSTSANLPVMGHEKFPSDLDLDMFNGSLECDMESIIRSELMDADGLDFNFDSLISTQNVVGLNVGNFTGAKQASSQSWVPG

The target in the assay is Myc-tagged wild-type FTO (UniProt Q9C0B1). Description: co-IP; reciprocal co-immunoprecipitation; HA-tagged FOXO3a over-expressed together with Myc-tagged FTO-WT or FTO-Mut in HEK293 cells.

No constants are given. Whether binding was seen depends on the method and setting. In cells and extracts the contact can be indirect. Some entries that bind do so weakly or less than the wild type.

Take “HA-tagged FOXO3a (from UniProt O43524 1-673)”: the binding result is “binds”.
